± gives the uncertainty stated by the source. Many entries were measured with a wide error.
Assay: self-splicing fitness, log relative to wild type (ln ratio); higher = more splicing; Tetrahymena group I intron in knt gene, E. coli kanamycin selection, DiMSum; sequences stand for … in CUCUCU…GGAGGGAAAAGUUAUCAGGCAUGCACCUGGUAGCUAGUCUUUAAACCAAUAGAUUGCAUCGGUUUAAAAGGCAAGACCGUCAAAUUGCGGGAAAGGGGUCAACAGCCGUUCAGUACCAAGUCUCAGGGGAAACUUUGAGAUGGCCUUGCAAAGGGUAUGGUAAUAAGCUGACGGACAUGGUCCUAACCACGCAGCCAAGUCCUAAGUCAACAGAUCUUCUGUUGAUAUGGAUGCAGUUCACAGACUAAAUGUCGGUCGGGGAAGAUGUAUUCUUCUCAUAAGAUAUAGUCGGACCUCUCCUUAAUGGGAGCUAGCGGAUGAAGUGAUGCAACACUGGAGCCGCUGGGAACUAAUUUGUAUGCGAAAGUAUAUUGAUUAGUUUUGGAGUACUCGUGGUCG
Procedure, shortened: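 Pooled colonies went to amplicon sequencing on an Illumina HiSeq 2500 after six replicate transformations. The plates were LB agar with 100 μg/mL carbenicillin, 50 μM IPTG and 0.2% rhamnose, with or without 25 μg/mL kanamycin, incubated overnight at 37°C or 30°C. The E. coli BL21(DE3) library had all eight P1ex-region intron nucleotides randomised, the intron placed in the knt kanamycin-resistance gene on pET-22b(+). DiMSum fitness is the error-weighted combination of replicate fold changes, kanamycin against none, normalised to wild type.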

Sequence | self-splicing fitness (ln) (30 °C) | self-splicing fitness (ln) (37 °C)
CCCUAGCAAUAUUACGCACG | -3.98 ± 0.37 | -1.74 ± 0.18
AACGAGCAAUAUUACGCAGG |  | -2.61 ± 0.53
UGUCAGCAAUAUUACGACAC |  | -1 ± 0.65
GAAGAGCAAUAUUACGCCAC | -3.28 ± 0.41 | -2.48 ± 0.41
UGCGAGCAAUAUUACGGAAU | -3.87 ± 1 | -3.23 ± 1
UAGUAGCAAUAUUACGUCAU |  | -2.56 ± 0.62
GGCGAGCAAUAUUACGACAA | -1.01 ± 0.57 | 
UCGCAGCAAUAUUACGAUCC | -2.47 ± 0.54 | 
UUGGAGCAAUAUUACGUCGU |  | -1.99 ± 0.5
CCGCAGCAAUAUUACGAGGU | -3.73 ± 0.2 | -1.84 ± 0.19
GUUGAGCAAUAUUACGAUGA | -3.58 ± 0.62 | 
GGCCAGCAAUAUUACGCGGU | -3.63 ± 0.46 | -2.53 ± 0.34
CGACAGCAAUAUUACGCGAG | -1.5 ± 0.16 | -2.32 ± 0.21
GGGGAGCAAUAUUACGUUGG | -1.93 ± 1.2 | -1.26 ± 0.73
UGAGAGCAAUAUUACGAGAG | -4.33 ± 0.73 | 
CGGGAGCAAUAUUACGGUGA |  | -1.92 ± 0.56
GUAUAGCAAUAUUACGAGCC | -2.29 ± 0.56 | -0.693 ± 1.4
ACCCAGCAAUAUUACGCUCA | -0.397 ± 0.065 | -0.324 ± 0.087
GCAGAGCAAUAUUACGUCAG | -4.7 ± 0.51 | 
UUAGAGCAAUAUUACGUGUC | -3.51 ± 0.52 | -3.05 ± 0.74
UUAGAGCAAUAUUACGCGGC | -3.03 ± 0.67 | 
UCGAAGCAAUAUUACGCCUA | -3.16 ± 1 | 
CUAGAGCAAUAUUACGAUCC |  | -0.404 ± 0.51
GGAGAGCAAUAUUACGGGUG | -2.47 ± 0.59 | -2.45 ± 0.54

2 records picked at random from those above, as already listed:
Sequence | self-splicing fitness (ln) (30 °C) | self-splicing fitness (ln) (37 °C)
UAGUAGCAAUAUUACGUCAU |  | -2.56 ± 0.62
UCGCAGCAAUAUUACGAUCC | -2.47 ± 0.54 | 

The list goes on:

Sequence | self-splicing fitness (ln) (30 °C) | self-splicing fitness (ln) (37 °C)
CUUAAGCAAUAUUACGAAUC |  | -2.92 ± 0.75
CACCAGCAAUAUUACGGGUA | -0.28 ± 0.045 | -0.404 ± 0.055
GAUGAGCAAUAUUACGUAAC | -1.63 ± 0.12 | -1.9 ± 0.3
UCUUAGCAAUAUUACGCACC | -2.09 ± 1.4 | 
GUUUAGCAAUAUUACGUCCC | 0.518 ± 1.1 | 0.0661 ± 0.63
CGGUAGCAAUAUUACGCGCU |  | -2.98 ± 0.75
GAGGAGCAAUAUUACGCGUC | -4.46 ± 0.59 | 
CCGGAGCAAUAUUACGUCUA | -3.56 ± 0.53 | 
GGUCAGCAAUAUUACGGGGG | -3.31 ± 0.54 | 
UCAGAGCAAUAUUACGUCCU |  | -3.26 ± 0.52
CGUAAGCAAUAUUACGGCCC | -2.5 ± 0.51 | 
CCGGAGCAAUAUUACGUCCG |  | -3.74 ± 1
UCCGAGCAAUAUUACGACGC | -4.48 ± 1 | 
UGUGAGCAAUAUUACGGAAC | -2.93 ± 1.1 | 
UUCUAGCAAUAUUACGAACA | -0.853 ± 0.58 | 
CCUAAGCAAUAUUACGGUAC | -2.81 ± 0.22 | -2.17 ± 0.34
AUUUAGCAAUAUUACGGUUC | -4.68 ± 0.51 | 
GGGGAGCAAUAUUACGCACG | -1.89 ± 0.17 | -1.44 ± 0.24
GAUGAGCAAUAUUACGAUGU | -2.63 ± 0.25 | -2.15 ± 0.35
UGUAAGCAAUAUUACGAUGG | -2.9 ± 0.13 | -0.756 ± 0.12
UGUGAGCAAUAUUACGAAGA |  | -2.97 ± 0.54
UCGGAGCAAUAUUACGCCUC | -2.87 ± 1.1 | -1.98 ± 0.66
AAUUAGCAAUAUUACGAAAC | -2.42 ± 0.55 | 
ACACAGCAAUAUUACGGGCA | -1.48 ± 0.078 | -0.0778 ± 0.091

Sequence | self-splicing fitness (ln) (30 °C) | self-splicing fitness (ln) (37 °C)
AAUGAGCAAUAUUACGAACC | -2.09 ± 0.76 | -1.29 ± 0.87
UCGGAGCAAUAUUACGGCGC |  | -2.46 ± 0.79
CUUUAGCAAUAUUACGUACC | -2.79 ± 0.56 | 
GGCCAGCAAUAUUACGCAGG | -5.87 ± 0.58 | 
UCAUAGCAAUAUUACGUUCC | -4.8 ± 1 | 
UUGGAGCAAUAUUACGUUGC | -4.15 ± 0.74 | 
GGGUAGCAAUAUUACGCAUA | 0.317 ± 0.56 | 
GAUUAGCAAUAUUACGCCAU | -3.23 ± 0.54 | 
CAAUAGCAAUAUUACGUUCU |  | -3.68 ± 0.73
GAGCAGCAAUAUUACGAAUC | -2.08 ± 0.07 | -1.22 ± 0.083
UUGGAGCAAUAUUACGUGCA | -4.66 ± 0.72 | 
CUACAGCAAUAUUACGACAC | -3.63 ± 0.6 | -1.91 ± 0.56
UAGUAGCAAUAUUACGAGAA | -3.23 ± 0.74 | 
CCAAAGCAAUAUUACGGAAC | -4.57 ± 0.59 | 
ACAGAGCAAUAUUACGAGAA |  | -1.76 ± 0.83
CACGAGCAAUAUUACGCACA | -2.74 ± 0.19 | -1.17 ± 0.15
CCGUAGCAAUAUUACGAGGC | -3.26 ± 0.74 | -2.78 ± 0.62
CAAGAGCAAUAUUACGUAAC | -4.63 ± 0.59 | 
AUUCAGCAAUAUUACGGGCG | -0.695 ± 0.1 | -0.0814 ± 0.12
UCUAAGCAAUAUUACGGACU | -3.51 ± 0.28 | -2.84 ± 0.27
CGAGAGCAAUAUUACGUCGU | -4.44 ± 0.59 | 
UCUGAGCAAUAUUACGACUU |  | -2.82 ± 0.54
GUAAAGCAAUAUUACGAUUC | 0.475 ± 0.08 | 0.115 ± 0.091
GCAGAGCAAUAUUACGGAAC | -5.05 ± 0.59 | 

Sequence | self-splicing fitness (ln) (30 °C) | self-splicing fitness (ln) (37 °C)
GGUAAGCAAUAUUACGGCCU |  | -2.25 ± 0.55
CCUAAGCAAUAUUACGGAGA | -4.32 ± 0.52 | 
CAGUAGCAAUAUUACGGAGC | -3.53 ± 0.54 | 
GCUUAGCAAUAUUACGCCAA |  | -2.23 ± 0.57
UUCAAGCAAUAUUACGGGCC | -4.73 ± 0.59 | 
GAGCAGCAAUAUUACGCCCA | -0.299 ± 0.18 | 0.255 ± 0.26
CAAUAGCAAUAUUACGCCCA |  | -1.34 ± 0.54
UUAUAGCAAUAUUACGGAGU | -3.38 ± 0.32 | -2.15 ± 0.3
UGUUAGCAAUAUUACGCACA | -1.21 ± 0.12 | -0.549 ± 0.11
CGCCAGCAAUAUUACGGGAC | -5.75 ± 0.58 | 
GCGGAGCAAUAUUACGUGCU | -3.8 ± 0.53 | -2.74 ± 0.54
AUCUAGCAAUAUUACGGGUA | -1.97 ± 0.15 | -1.49 ± 0.12
GUAGAGCAAUAUUACGAGAG | -3.5 ± 0.73 | 
ACGUAGCAAUAUUACGCUUC | -3.97 ± 1 | -2.78 ± 0.53
UUGGAGCAAUAUUACGGACC | -3.8 ± 0.52 | 
UGUGAGCAAUAUUACGCCUU |  | -1.47 ± 0.87
UGGAAGCAAUAUUACGCGAC |  | -4.42 ± 1
AUCGAGCAAUAUUACGCUUC | -4.48 ± 0.51 | 
UCAGAGCAAUAUUACGCACC | -4.73 ± 1 | 
UCGGAGCAAUAUUACGAGGC | -2.74 ± 0.42 | -2.93 ± 0.75
CGCGAGCAAUAUUACGGGAA | -3.74 ± 0.27 | -2.4 ± 0.29
CUGUAGCAAUAUUACGUUCC | -4.43 ± 0.59 | -2.72 ± 1.1
UGGAAGCAAUAUUACGGAGC | -2.42 ± 0.64 | 
CGGGAGCAAUAUUACGCGCU |  | -2.55 ± 0.62

Some of the entries so far, as labelled records:
UCGCAGCAAUAUUACGAUCC
  self-splicing fitness (ln) (30 °C) = -2.47 ± 0.54
UUGGAGCAAUAUUACGUCGU
  self-splicing fitness (ln) (37 °C) = -1.99 ± 0.5
CCGCAGCAAUAUUACGAGGU
  self-splicing fitness (ln) (30 °C) = -3.73 ± 0.2
  self-splicing fitness (ln) (37 °C) = -1.84 ± 0.19
GUUGAGCAAUAUUACGAUGA
  self-splicing fitness (ln) (30 °C) = -3.58 ± 0.62

Later entries.

Sequence | self-splicing fitness (ln) (30 °C) | self-splicing fitness (ln) (37 °C)
UGUCAGCAAUAUUACGUCGC |  | -2.24 ± 0.64
UGAGAGCAAUAUUACGAGAU | -2.99 ± 0.66 | -1.53 ± 0.69
UCGCAGCAAUAUUACGCAGU | -3.58 ± 0.2 | -2.35 ± 0.2
UUCAAGCAAUAUUACGUACC | -3.54 ± 0.73 | 
GGGGAGCAAUAUUACGUCAC | -2.79 ± 1.2 | 
GCUCAGCAAUAUUACGUUUC | -0.455 ± 0.065 | -0.0579 ± 0.091
UCAUAGCAAUAUUACGAAGC | -2.83 ± 0.54 | -4.01 ± 0.59
CUCUAGCAAUAUUACGGCCC |  | -2.39 ± 1.1
GUCGAGCAAUAUUACGGGGC | -3.92 ± 0.6 | 
UCGGAGCAAUAUUACGAUUU | -2.74 ± 0.56 | -0.595 ± 1.4
UAGGAGCAAUAUUACGGAUA | -2.09 ± 0.29 | -1.46 ± 0.23
GGGUAGCAAUAUUACGGUAG | -5.34 ± 1 | 
CUGGAGCAAUAUUACGUCCA | -1.62 ± 0.53 | 
CCGAAGCAAUAUUACGCUAU | -3.8 ± 0.73 | -2.24 ± 0.25
UCCGAGCAAUAUUACGUAAC | -4.49 ± 1 | 
GAUGAGCAAUAUUACGAGAG | -4.94 ± 0.51 | 
UAAGAGCAAUAUUACGACCU |  | -2.13 ± 0.58
CUCGAGCAAUAUUACGAGAA | -2.11 ± 0.67 | -2.92 ± 1
CCGUAGCAAUAUUACGAGCC | -3.71 ± 0.6 | 
UCCCAGCAAUAUUACGCACC | -4.46 ± 1 | 
UGCUAGCAAUAUUACGACGC | -1.52 ± 1.2 | -3.4 ± 1
ACAGAGCAAUAUUACGCAAC | -2.5 ± 0.63 | 
AUCGAGCAAUAUUACGCCCC |  | -2.22 ± 0.68
UGCUAGCAAUAUUACGAGAA | -1.7 ± 0.54 | -2.2 ± 1.1

From the supplement of paper PMC7877785
